{
  "sequences": {"note": "Amino acid sequences for entries named in this document (tags omitted).", "UniProt O14744": "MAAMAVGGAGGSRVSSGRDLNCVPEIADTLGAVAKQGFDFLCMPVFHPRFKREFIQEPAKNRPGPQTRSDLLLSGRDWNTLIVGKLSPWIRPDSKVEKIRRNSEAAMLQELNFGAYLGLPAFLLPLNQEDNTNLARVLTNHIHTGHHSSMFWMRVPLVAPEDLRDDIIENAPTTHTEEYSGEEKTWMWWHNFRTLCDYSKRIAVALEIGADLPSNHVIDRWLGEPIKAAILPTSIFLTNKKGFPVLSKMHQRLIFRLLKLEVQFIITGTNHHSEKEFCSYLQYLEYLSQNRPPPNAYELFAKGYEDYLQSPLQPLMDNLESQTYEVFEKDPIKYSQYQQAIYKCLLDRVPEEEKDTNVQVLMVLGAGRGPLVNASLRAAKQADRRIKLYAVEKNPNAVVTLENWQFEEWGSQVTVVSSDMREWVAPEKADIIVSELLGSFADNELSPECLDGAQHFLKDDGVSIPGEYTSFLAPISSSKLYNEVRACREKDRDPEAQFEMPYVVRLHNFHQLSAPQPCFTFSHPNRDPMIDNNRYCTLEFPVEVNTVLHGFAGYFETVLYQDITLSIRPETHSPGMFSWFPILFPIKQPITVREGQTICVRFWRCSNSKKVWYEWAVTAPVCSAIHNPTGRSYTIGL"},
  "source": "paper PMC9164399",
  "binders": {"B1": {"name": "HA-Slug (protein, UniProt O43623 1-268)", "chain": "MPRSFLVKKHFNASKKPNYSELDTHTVIISPYLYESYSMPVIPQPEILSSGAYSPITVWTTAAPFHAQLPNGLSPLSGYSSSLGRVSPPPPSDTSSKDHSGSESPISDEEERLQSKLSDPHAIEAEKFQCNLCNKTYSTFSGLAKHKQLHCDAQSRKSFSCKYCDKEYVSLGALKMHIRTHTLPCVCKICGKAFSRPWLLQGHIRTHTGEKPFSCPHCNRAFADRSNLRAHLQTHSDVKKYQCKNCSKTFSRMSLLHKHEESGCCVAH"}, "B2": {"name": "Myc-tagged C-terminal Slug (128-268 aa) (domain or fragment, UniProt O43623 128-268)", "chain": "FQCNLCNKTYSTFSGLAKHKQLHCDAQSRKSFSCKYCDKEYVSLGALKMHIRTHTLPCVCKICGKAFSRPWLLQGHIRTHTGEKPFSCPHCNRAFADRSNLRAHLQTHSDVKKYQCKNCSKTFSRMSLLHKHEESGCCVAH"}, "B3": {"name": "Slug (endogenous) (protein, UniProt O43623 1-268)", "chain": "B1 chain"}},
  "key": {"Flag-PRMT5 (human) [1]": {"biological_target": "Flag-PRMT5 (human) (UniProt O14744)", "experiment": "co-IP; one Flag-tagged and two HA-tagged proteins of Slug, PRMT5 and LSD1 co-expressed in HEK293T cells; immunoprecipitation with appropriate antibodies, western blot"}, "Flag-PRMT5 (human) [2]": {"biological_target": "Flag-PRMT5 (human) (UniProt O14744)", "experiment": "co-IP; domain mapping: a Flag- or HA-tagged full-length protein co-expressed with Myc-tagged truncations in HEK293T cells; immunoprecipitation with Flag, HA or Myc antibody, western blot"}, "[3]": {"biological_target": "Protein arginine methyltransferase 5 (endogenous) (human (endogenous in HEK293T, MDA-MB-231, SUM159 and Hs578T)) (UniProt O14744)", "experiment": "co-IP; endogenous proteins; lysates of MDA-MB-231, SUM159 or Hs578T cells immunoprecipitated with antibodies against Slug, LSD1 or PRMT5, Protein G magnetic beads, 4 °C, lysis buffer 50 mM Tris-HCl pH 8.0, 0.2% NP-40, 150 mM NaCl, 2 mM EDTA; immunoblot"}},
  "note": "These are yes or no findings as the source states them, for the method shown. Binding seen in cells or lysates may run through a third protein. Some binding calls cover weakened binding; strength is not graded here. For part of these data: Sequences can lack the tags named with a protein.",
  "data": [
    {"binder": "B1", "values": [
      {"measurement": "binding", "setting": "Flag-PRMT5 (human) [1]", "value": "binds"}
    ]},
    {"binder": "B2", "values": [
      {"measurement": "binding", "setting": "Flag-PRMT5 (human) [2]", "value": "binds"}
    ]},
    {"binder": "B3", "values": [
      {"measurement": "binding", "setting": "[3]", "value": "binds"}
    ]}
  ]
}
